Values from PubChem BioAssay AID1671195 (Yale University, 2021)

Assay: 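Genes whose knockdown alters LDL uptake in liver cancer cells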 (primary screen)
Cell system: human Huh7 hepatoma cells
Reagent: siRNA pool against human genes, 18 nM
Time to read-out: about 2 to 2.5 days of knockdown, then 8 h LDL uptake
Challenge: DiI-labelled LDL at 30 µg/ml for 8 h, in lipoprotein-deficient serum medium
Measured: 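Per-cell DiI-LDL intensity by automated imaging; well means scaled to the plate median and given as a robust z-score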
Direction: robust z-score: higher = more LDL uptake after knockdown
Hit rule: 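a gene counts as active if at least two replicate z-scores exceed ±2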
Here is an unselected part of about 22,000 reagents. About 1,510 of them (6.9%) were called active. 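Active includes knockdowns raising or lowering LDL uptake; positive z-scores mean more uptake, negative mean less.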

no.	target gene	robust z-score, replicate 1	robust z-score, replicate 2	robust z-score, replicate 3	activity call
1	ENO3	0.769	-0.968	0.478	inactive
2	ETV7	0.065	0.275	1.05	inactive
3	ZNF384	-1.01	-1.04	-0.952	inactive
4	CCNJ	-0.0128	-0.485	-1	inactive
5	PLAC9P1	-1.63	-2.09	-1.88	inactive
6	CAPSL	0.736	0.135	0.433	inactive
7	NAPRT	0.236	0.146	0.145	inactive
8	GOLGA1	-0.715	-0.233	-1.65	inactive
9	LOC400877 (retired record)	-1.07	-0.926	-1.08	inactive
10	DEFB1	0.488	0.724	-0.563	inactive
11	SUCLG1	-0.731	-0.509	-0.665	inactive
12	LY6S-AS1	-1.89	-1.98	-2.05	active
13	CXCL5	0.622	-0.737	-0.0161	inactive
14	ACO2	1.14	0.843	1.19	inactive
15	LOC391609 (retired record)	1.47	1.4	1.36	inactive
16	GABRA3	-1.31	-0.931	-1.11	inactive
17	TSC2	-1.12	-1.37	-1.27	inactive
18	OR5H15	-0.363	-0.988	-1.14	inactive
19	ARRDC2	-2.02	-0.822	-0.371	inactive
20	LILRA1	0.371	-0.962	0.211	inactive
21	SLC22A3	0.628	0.259	0.709	inactive
22	MIF	0.128	0.0589	0.42	inactive
23	ZNF560	-0.527	0.433	-0.381	inactive
24	FBXO33	-0.773	-0.452	-0.801	inactive
25	CSNK1G1	0.363	-0.97	0.11	inactive
26	LOC441615 (retired record)	0.252	0.664	0.388	inactive
27	ZSCAN9	-1.03	-0.584	-0.00433	inactive
28	CXADRP3	0.263	0.835	0.581	inactive
29	ETV4	0.345	0.364	0.481	inactive
30	EXO5	-0.407	-0.316	-0.385	inactive
31	LOC392559 (retired record)	-3.29	-2.82	-2.74	active
32	UNC13A	0.744	1.16	0.74	inactive
33	CCL26	-1.4	-1.08	-1.38	inactive
34	NRK	2.58	2.59	1.78	active
35	DPF2	0.47	0.93	-0.247	inactive
36	CSAG1	0.637	-0.296	0.312	inactive
37	RBFOX3	-0.758	0.548	0.147	inactive
38	SLC25A10	0.324	0.224	0.662	inactive
39	TRIM23	0.88	0.223	0.365	inactive
40	RMND1	0.242	-0.723	-1.28	inactive
41	CD247	-0.152	-0.256	-0.137	inactive
42	KXD1	0.813	0.725	0.744	inactive
43	TMUB1	2.37	2.83	2.56	active
44	DESI2	-2.25	-0.0199	-0.349	inactive
45	NIT1	-0.977	-0.472	-0.668	inactive
46	AGA	0.505	-2.24	0.614	inactive

Records above whose gene name begins with S or s:
target gene	robust z-score, replicate 1	robust z-score, replicate 2	robust z-score, replicate 3	activity call
SUCLG1	-0.731	-0.509	-0.665	inactive
SLC22A3	0.628	0.259	0.709	inactive
SLC25A10	0.324	0.224	0.662	inactive
